Assay results published in the supplement of paper PMC10849652.
The other results are listed elsewhere or left out.

By UniProt entry, the sequences of proteins in these tests, tags left out. Where a name states a change or a piece, a line headed by the entry shows the natural chain unless it says otherwise.
UniProt Q7Z3D4: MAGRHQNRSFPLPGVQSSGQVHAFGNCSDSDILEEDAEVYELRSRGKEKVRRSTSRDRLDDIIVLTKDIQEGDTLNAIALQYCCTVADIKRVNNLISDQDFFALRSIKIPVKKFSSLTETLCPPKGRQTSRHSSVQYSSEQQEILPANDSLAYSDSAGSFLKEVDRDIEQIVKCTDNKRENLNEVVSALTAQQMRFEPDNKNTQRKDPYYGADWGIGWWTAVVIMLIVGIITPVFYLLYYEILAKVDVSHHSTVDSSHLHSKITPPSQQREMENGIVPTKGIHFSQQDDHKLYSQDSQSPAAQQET
UniProt Q9NTJ4: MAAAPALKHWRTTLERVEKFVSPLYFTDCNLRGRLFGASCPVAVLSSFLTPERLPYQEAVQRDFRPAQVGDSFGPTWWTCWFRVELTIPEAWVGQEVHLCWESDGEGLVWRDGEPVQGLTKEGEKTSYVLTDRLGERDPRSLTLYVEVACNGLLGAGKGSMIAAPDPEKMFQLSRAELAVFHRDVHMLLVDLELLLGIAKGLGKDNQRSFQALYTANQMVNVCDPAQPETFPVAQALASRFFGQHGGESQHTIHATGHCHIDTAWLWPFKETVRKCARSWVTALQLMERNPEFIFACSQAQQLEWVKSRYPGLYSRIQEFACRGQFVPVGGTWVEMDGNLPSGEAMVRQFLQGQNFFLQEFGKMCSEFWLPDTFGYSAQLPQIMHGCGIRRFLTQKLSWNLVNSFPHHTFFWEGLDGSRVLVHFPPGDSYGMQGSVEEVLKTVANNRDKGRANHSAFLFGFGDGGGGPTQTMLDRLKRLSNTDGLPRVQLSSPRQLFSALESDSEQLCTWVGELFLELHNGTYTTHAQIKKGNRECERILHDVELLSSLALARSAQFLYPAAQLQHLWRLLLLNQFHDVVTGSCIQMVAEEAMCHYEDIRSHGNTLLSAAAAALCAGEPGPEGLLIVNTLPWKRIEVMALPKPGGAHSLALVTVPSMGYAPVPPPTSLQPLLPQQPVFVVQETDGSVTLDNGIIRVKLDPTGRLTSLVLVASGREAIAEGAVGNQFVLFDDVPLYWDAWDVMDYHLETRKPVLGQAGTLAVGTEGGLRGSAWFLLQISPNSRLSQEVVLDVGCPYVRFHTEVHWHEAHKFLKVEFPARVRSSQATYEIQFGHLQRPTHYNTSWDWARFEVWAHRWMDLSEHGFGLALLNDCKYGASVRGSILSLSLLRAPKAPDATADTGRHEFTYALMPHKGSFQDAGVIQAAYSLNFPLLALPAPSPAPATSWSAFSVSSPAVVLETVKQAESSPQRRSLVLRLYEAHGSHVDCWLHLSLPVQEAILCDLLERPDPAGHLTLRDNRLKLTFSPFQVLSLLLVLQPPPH
UniProt Q9Y333: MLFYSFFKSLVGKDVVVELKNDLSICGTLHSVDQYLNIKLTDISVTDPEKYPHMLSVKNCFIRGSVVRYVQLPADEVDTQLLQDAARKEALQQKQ
UniProt P20645: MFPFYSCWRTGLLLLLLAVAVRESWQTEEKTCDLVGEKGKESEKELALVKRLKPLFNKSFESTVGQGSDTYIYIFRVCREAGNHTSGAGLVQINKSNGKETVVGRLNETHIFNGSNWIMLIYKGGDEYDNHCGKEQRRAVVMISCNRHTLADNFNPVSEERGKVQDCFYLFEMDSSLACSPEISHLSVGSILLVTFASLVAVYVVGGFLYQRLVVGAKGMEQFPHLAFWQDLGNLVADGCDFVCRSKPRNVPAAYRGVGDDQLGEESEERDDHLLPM
UniProt P28482, whole entry, looked up: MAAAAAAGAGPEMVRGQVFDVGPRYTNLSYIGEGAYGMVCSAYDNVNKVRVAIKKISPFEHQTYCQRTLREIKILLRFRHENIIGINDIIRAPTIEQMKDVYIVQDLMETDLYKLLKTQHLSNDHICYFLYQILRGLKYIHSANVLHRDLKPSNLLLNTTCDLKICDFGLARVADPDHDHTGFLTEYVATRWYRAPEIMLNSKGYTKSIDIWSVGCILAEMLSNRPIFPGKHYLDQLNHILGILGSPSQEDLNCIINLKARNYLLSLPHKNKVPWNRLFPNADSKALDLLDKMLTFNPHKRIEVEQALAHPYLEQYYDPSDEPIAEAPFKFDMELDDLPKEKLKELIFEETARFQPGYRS
UniProt P27361, whole entry, looked up: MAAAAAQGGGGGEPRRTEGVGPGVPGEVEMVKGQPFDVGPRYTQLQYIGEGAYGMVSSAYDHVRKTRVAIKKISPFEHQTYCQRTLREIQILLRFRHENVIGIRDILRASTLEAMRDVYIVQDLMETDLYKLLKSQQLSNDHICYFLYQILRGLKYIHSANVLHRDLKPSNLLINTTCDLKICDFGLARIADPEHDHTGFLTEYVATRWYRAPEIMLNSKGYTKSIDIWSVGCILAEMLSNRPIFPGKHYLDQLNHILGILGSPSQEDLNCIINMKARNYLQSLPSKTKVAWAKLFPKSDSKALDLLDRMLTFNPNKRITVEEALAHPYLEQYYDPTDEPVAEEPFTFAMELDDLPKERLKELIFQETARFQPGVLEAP
UniProt P43366: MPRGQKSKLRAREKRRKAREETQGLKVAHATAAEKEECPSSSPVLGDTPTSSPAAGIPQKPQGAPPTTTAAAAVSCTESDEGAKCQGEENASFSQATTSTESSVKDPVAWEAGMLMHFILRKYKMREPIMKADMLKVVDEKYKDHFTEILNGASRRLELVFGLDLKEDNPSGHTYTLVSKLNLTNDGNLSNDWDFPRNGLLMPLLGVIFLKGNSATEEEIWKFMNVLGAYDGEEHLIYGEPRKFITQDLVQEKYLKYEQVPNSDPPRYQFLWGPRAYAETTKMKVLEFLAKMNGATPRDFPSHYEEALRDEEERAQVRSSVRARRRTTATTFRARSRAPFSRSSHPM
UniProt P62310: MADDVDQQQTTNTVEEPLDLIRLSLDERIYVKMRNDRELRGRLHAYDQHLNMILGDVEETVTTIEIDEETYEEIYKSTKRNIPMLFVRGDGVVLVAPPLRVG
UniProt Q9BX40: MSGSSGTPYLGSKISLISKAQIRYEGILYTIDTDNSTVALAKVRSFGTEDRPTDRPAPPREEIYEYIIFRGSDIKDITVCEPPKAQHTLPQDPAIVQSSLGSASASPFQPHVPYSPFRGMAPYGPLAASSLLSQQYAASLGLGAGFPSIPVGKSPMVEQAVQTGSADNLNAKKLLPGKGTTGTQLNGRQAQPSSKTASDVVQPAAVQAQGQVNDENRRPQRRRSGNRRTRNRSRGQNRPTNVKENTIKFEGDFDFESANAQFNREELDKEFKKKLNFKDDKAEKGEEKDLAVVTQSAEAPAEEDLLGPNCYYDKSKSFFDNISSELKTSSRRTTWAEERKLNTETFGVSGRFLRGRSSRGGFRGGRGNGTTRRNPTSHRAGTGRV
UniProt P09960: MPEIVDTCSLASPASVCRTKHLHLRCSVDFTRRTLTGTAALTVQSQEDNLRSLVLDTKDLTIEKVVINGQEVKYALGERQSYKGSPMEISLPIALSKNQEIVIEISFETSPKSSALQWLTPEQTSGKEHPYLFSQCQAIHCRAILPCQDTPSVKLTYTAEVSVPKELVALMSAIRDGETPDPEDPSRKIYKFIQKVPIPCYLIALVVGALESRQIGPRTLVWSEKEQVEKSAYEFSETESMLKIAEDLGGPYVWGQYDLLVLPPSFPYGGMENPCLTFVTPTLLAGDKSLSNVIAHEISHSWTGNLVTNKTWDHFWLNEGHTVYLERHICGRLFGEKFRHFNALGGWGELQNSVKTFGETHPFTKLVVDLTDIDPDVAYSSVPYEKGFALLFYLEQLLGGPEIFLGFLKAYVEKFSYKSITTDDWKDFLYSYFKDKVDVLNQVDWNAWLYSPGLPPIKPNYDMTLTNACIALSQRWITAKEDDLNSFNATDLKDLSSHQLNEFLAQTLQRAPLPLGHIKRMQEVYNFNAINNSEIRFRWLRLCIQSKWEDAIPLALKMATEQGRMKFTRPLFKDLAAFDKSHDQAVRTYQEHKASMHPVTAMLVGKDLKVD
UniProt O15116: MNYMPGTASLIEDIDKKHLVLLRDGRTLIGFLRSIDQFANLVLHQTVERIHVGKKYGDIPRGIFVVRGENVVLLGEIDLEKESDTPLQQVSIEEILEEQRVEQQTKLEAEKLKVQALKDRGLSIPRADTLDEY
UniProt Q6ZN28: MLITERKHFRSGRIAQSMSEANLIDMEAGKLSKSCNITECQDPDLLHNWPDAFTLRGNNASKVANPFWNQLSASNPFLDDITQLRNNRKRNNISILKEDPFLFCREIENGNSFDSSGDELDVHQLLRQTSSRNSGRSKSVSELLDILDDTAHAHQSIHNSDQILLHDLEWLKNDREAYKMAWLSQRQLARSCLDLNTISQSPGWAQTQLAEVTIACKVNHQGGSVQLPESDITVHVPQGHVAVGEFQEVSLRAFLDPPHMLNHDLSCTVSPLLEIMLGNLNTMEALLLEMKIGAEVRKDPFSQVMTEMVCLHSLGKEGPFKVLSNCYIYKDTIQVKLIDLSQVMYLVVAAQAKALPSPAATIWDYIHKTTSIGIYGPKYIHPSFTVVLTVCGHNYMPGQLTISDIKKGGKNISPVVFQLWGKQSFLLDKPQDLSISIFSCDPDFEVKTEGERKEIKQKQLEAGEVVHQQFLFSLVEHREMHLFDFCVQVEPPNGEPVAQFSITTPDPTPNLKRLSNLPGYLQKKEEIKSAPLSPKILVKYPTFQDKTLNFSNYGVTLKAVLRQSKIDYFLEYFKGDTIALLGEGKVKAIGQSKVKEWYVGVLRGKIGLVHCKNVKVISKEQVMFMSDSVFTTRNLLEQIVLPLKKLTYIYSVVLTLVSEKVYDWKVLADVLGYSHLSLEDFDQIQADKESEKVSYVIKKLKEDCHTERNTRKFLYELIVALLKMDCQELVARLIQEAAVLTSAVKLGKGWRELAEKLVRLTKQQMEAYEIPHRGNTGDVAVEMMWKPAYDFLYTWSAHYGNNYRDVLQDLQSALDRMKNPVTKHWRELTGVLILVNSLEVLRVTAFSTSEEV
UniProt Q9UKM7: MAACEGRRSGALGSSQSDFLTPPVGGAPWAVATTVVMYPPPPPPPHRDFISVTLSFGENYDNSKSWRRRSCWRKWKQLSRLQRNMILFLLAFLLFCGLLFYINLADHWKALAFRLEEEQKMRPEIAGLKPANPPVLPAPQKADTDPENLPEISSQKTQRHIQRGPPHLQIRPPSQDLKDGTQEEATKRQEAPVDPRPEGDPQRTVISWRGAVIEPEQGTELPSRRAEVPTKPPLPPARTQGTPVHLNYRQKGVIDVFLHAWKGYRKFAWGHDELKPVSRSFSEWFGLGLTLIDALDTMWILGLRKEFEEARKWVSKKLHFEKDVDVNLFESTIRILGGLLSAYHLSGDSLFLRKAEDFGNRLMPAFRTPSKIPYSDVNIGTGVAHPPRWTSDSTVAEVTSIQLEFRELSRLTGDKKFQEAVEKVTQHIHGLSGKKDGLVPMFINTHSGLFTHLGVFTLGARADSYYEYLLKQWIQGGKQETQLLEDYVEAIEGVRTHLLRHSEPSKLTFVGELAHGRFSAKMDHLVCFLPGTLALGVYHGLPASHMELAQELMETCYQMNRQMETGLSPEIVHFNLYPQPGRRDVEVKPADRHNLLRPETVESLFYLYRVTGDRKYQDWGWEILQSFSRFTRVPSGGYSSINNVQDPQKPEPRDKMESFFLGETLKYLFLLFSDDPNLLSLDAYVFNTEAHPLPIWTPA

Experiments:
Test in all cases: log2 fold change, soluble protein after heating vs DMSO (PISA); higher = thermal stabilisation; K562 cells, 10 uM, 30 min; active = over 0.2 and 3.5 SD of the protein, either way, in both replicates (recomputed)
[1] = compound: COC1=CC=C(C=C1)CN2C=CC3=C2C=C(C=C3)C(=O)NO
Procedure, shortened: (§1)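 K562 cells at 2×10^6 cells/mL were given 10 μM compound for 30 min. Aliquots then went through 3 min of heating across 48°C-58°C, were pooled, and were extracted in PBS with 0.5% NP-40 at 4°C, and the supernatant after 21,000xg for 90 min was quantified by TMTpro 16plex LC-MS/MS with channel sums equalised. Thermal stability relative to control samples, from duplicates, is given as log2 fold change.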

[2] = compound: CON(C)C(=O)N1N=C(c2cc(F)ccc2F)S[C@@]1(CCCN)c1ccccc1 [filanesib]
Procedure, shortened: as §1

[3] = compound: CO[C@H]1C[C@@H]2CC[C@@H](C)[C@@](O)(O2)C(=O)C(=O)N2CCCC[C@H]2C(=O)O[C@H]([C@H](C)C[C@@H]2CC[C@H](n3cnnn3)[C@H](OC)C2)CC(=O)[C@H](C)/C=C(\C)[C@@H](O)[C@@H](OC)C(=O)[C@H](C)C[C@H](C)/C=C/C=C/C=C/1C [zotarolimus]
Procedure, shortened: as §1

[4] = compound: COc1cc(C(=O)O)ccc1NC(=O)[C@@H]1N[C@@H](CC(C)(C)C)[C@](C#N)(c2ccc(Cl)cc2F)[C@H]1c1cccc(Cl)c1F [idasanutlin]
Procedure, shortened: as §1

[5] = compound: COc1cc(Nc2ncc3c(n2)-c2ccc(Cl)cc2C(c2c(F)cccc2OC)=NC3)ccc1C(=O)O [alisertib]
Procedure, shortened: as §1

[6] = compound: COc1cc2nc(-c3cc(F)ccc3O)nc(N[C@@H]3CNC[C@H]3C(C)(C)O)c2cc1OC
Procedure, shortened: as §1

[7] = compound: COc1cc2ncnc(Nc3ccc(F)c(Cl)c3)c2cc1OCCCN1CCOCC1 [gefitinib]
Procedure, shortened: as §1

[8] = compound: COc1cccc2cc(-c3nc([C@H]4CC[C@H](C(=O)O)CC4)n4ncnc(N)c34)[nH]c12
Procedure, shortened: as §1

[9] = compound: CS(=O)(=O)CCNCc1ccc(-c2ccc3ncnc(Nc4ccc(OCc5cccc(F)c5)c(Cl)c4)c3c2)o1 [lapatinib]
Procedure, shortened: as §1

[10] = compound: CS(=O)(=O)N1CCN(Cc2cc3nc(-c4cccc5[nH]ncc45)nc(N4CCOCC4)c3s2)CC1 [pictilisib]
Procedure, shortened: as §1

[11] = compound: CS(=O)(=O)c1ccc(-c2cnc(N)c(C(=O)Nc3ccccc3)n2)cc1
Procedure, shortened: as §1

[12] = compound: C[C@@H](Oc1cc(-c2cnn(C3CCNCC3)c2)cnc1N)c1c(Cl)ccc(F)c1Cl [crizotinib]
Procedure, shortened: as §1

[13] = compound: C[C@@H]1COCCN1C2=NC(=NC(=C2)C3(CC3)S(=O)(=O)C)C4=C5C=CNC5=CC=C4
Procedure, shortened: as §1

[14] = compound: C[C@H](C1=CC=C(C=C1)C(=O)NC2=C3C=CNC3=NC=C2)N
Procedure, shortened: as §1

[15] = compound: C[C@H](Nc1ncnc2nc[nH]c12)c1cc2cccc(Cl)c2c(=O)n1-c1ccccc1 [duvelisib]
Procedure, shortened: as §1

[16] = compound: Cc1cc(Nc2cc(CN3CCOCC3)c3nc(C)c(Cc4ccc(Cl)cc4F)n3n2)n[nH]1 [gandotinib]
Procedure, shortened: as §1

[17] = compound: Cc1cc(Nc2cc(N3CCN(C)CC3)nc(Sc3ccc(NC(=O)C4CC4)cc3)n2)n[nH]1 [tozasertib]
Procedure, shortened: as §1

[18] = compound: Cc1cc(SCc2sc(-c3ccc(C(F)(F)F)cc3)nc2C)ccc1OCC(=O)O
Procedure, shortened: as §1

[19] = compound: Cc1ccc(-n2nc(C(C)(C)C)cc2NC(=O)Nc2ccc(OCCN3CCOCC3)c3ccccc23)cc1 [doramapimod]
Procedure, shortened: as §1

[20] = compound: Cc1ccc(C(=O)N(CCCN)[C@@H](c2nc3cc(Cl)ccc3c(=O)n2Cc2ccccc2)C(C)C)cc1 [ispinesib]
Procedure, shortened: as §1

Measured: log2 fold change

LYSMD3 (UniProt Q7Z3D4)
inactive: [1] -0.002 | [2] -0.02 | [3] 0.127 | [4] -0.092 | [5] 0.008 | [6] -0.057 | [7] -0.016 | [8] 0.066 | [9] 0.15 | [10] 0.042 | [11] -0.061 | [12] 0.035 | [13] 0.158 | [14] -0.215 | [15] -0.022 | [16] 0.063 | [17] -0.076 | [18] -0.034 | [19] -0.033 | [20] -0.039

MAN2C1 isoform 4 (UniProt Q9NTJ4)
inactive: [1] -0.083 | [2] -0.019 | [3] -0.018 | [4] 0.092 | [5] -0.028 | [6] 0.036 | [7] 0.001 | [8] -0.005 | [9] 0.004 | [10] 0.003 | [11] -0.022 | [12] 0.044 | [13] 0.019 | [14] 0.121 | [15] 0.024 | [16] 0.03 | [17] -0.019 | [18] -0.07 | [19] -0.003 | [20] -0.045

LSM2 (UniProt Q9Y333)
inactive: [1] 0.007 | [2] -0.026 | [3] -0.006 | [4] -0.008 | [5] -0.051 | [6] 0.024 | [7] 0.009 | [8] 0.071 | [9] -0.025 | [10] 0.026 | [11] -0.038 | [12] 0.024 | [13] 0.01 | [14] -0.094 | [15] 0.034 | [16] -0.023 | [17] 0.005 | [18] -0.04 | [19] -0.017 | [20] 0.079

MAPRE2 (UniProt Q15555)
inactive: [1] 0.575 | [2] -0.17 | [3] 0.112 | [4] 0.027 | [5] 0.009 | [6] 0.001 | [7] 0.032 | [8] -0.034 | [9] 0.005 | [10] -0.03 | [11] -0.068 | [12] -0.179 | [13] -0.309 | [14] -0.014 | [15] -0.096 | [16] -0.039 | [17] 0.103 | [18] 0.126 | [19] 0.106 | [20] 0.145

M6PR (UniProt P20645)
inactive: [1] -0.059 | [2] -0.054 | [3] -0.033 | [4] 0.059 | [5] -0.049 | [6] -0.167 | [7] 0.045 | [8] 0 | [9] 0.031 | [10] 0.214 | [11] 0.031 | [12] 0.082 | [13] -0.012 | [14] -0.168 | [15] -0.017 | [16] -0.011 | [17] 0.032 | [18] -0.012 | [19] 0.003 | [20] -0.09

MAPK1 (UniProt P28482)
inactive: [1] -0.007 | [2] -0.035 | [3] -0.001 | [4] -0.045 | [5] -0.03 | [6] -0.024 | [7] 0.003 | [8] 0.043 | [9] -0.016 | [10] 0.002 | [11] -0.006 | [12] 0.004 | [13] 0.047 | [14] -0.06 | [15] 0.002 | [16] -0.043 | [17] -0.008 | [18] -0.01 | [19] -0.018 | [20] 0.04

MAK16 (UniProt Q9BXY0)
inactive: [1] -0.017 | [2] 0.115 | [3] 0.033 | [4] 0.061 | [5] -0.046 | [6] -0.127 | [7] -0.065 | [8] 0.02 | [9] 0.156 | [10] 0.053 | [11] -0.021 | [12] -0.04 | [13] -0.103 | [14] 0.132 | [15] 0.021 | [16] -0.037 | [17] 0.01 | [18] -0.043 | [19] 0.151 | [20] -0.09

MAPK3 (UniProt P27361)
inactive: [1] 0.137 | [2] -0.133 | [3] 0.034 | [4] -0.067 | [5] -0.055 | [6] -0.058 | [7] -0.019 | [8] 0.026 | [9] 0.011 | [10] -0.051 | [11] -0.064 | [12] -0.008 | [13] 0.013 | [14] -0.119 | [15] -0.01 | [16] -0.024 | [17] 0.012 | [18] -0.048 | [19] -0.063 | [20] 0.03

MAGEB1 (UniProt P43366)
inactive: [1] -0.047 | [2] 0.5 | [3] 0.099 | [4] 0.181 | [5] -0.143 | [6] -0.128 | [7] 0.047 | [8] -0.27 | [9] 0.139 | [10] 0.008 | [11] -0.095 | [12] -0.037 | [13] -0.406 | [14] 0.435 | [15] -0.228 | [16] 0.127 | [17] 0.068 | [18] 0.056 | [19] 0.207 | [20] -0.231

Quoted from the results shown (3 entries):
MAK16 (UniProt Q9BXY0)
inactive: [1] -0.017 | [2] 0.115 | [3] 0.033 | [4] 0.061 | [5] -0.046 | [6] -0.127 | [7] -0.065 | [8] 0.02 | [9] 0.156 | [10] 0.053 | [11] -0.021 | [12] -0.04 | [13] -0.103 | [14] 0.132 | [15] 0.021 | [16] -0.037 | [17] 0.01 | [18] -0.043 | [19] 0.151 | [20] -0.09

MAPK3 (UniProt P27361)
inactive: [1] 0.137 | [2] -0.133 | [3] 0.034 | [4] -0.067 | [5] -0.055 | [6] -0.058 | [7] -0.019 | [8] 0.026 | [9] 0.011 | [10] -0.051 | [11] -0.064 | [12] -0.008 | [13] 0.013 | [14] -0.119 | [15] -0.01 | [16] -0.024 | [17] 0.012 | [18] -0.048 | [19] -0.063 | [20] 0.03

MAGEB1 (UniProt P43366)
inactive: [1] -0.047 | [2] 0.5 | [3] 0.099 | [4] 0.181 | [5] -0.143 | [6] -0.128 | [7] 0.047 | [8] -0.27 | [9] 0.139 | [10] 0.008 | [11] -0.095 | [12] -0.037 | [13] -0.406 | [14] 0.435 | [15] -0.228 | [16] 0.127 | [17] 0.068 | [18] 0.056 | [19] 0.207 | [20] -0.231

(further entries)

MAGEC1 (UniProt O60732)
inactive: [1] 0.009 | [2] 0.255 | [3] 0.078 | [4] 0.072 | [5] -0.042 | [6] -0.01 | [7] 0.012 | [8] -0.196 | [9] 0.122 | [10] -0.052 | [11] 0.046 | [12] -0.075 | [13] -0.14 | [14] 0.185 | [15] -0.039 | [16] 0.103 | [17] 0.142 | [18] 0.029 | [19] 0.075 | [20] -0.103

LSM3 (UniProt P62310)
inactive: [1] 0.101 | [2] 0.05 | [3] -0.011 | [4] 0.087 | [5] -0.275 | [6] -0.004 | [7] 0.027 | [8] 0.021 | [9] 0.065 | [10] -0.107 | [11] -0.071 | [12] 0.137 | [13] 0.077 | [14] -0.12 | [15] -0.009 | [16] 0.132 | [17] -0.002 | [18] -0.121 | [19] 0 | [20] 0.183

LSM14B (UniProt Q9BX40)
inactive: [1] -0.004 | [2] 0.067 | [3] -0.045 | [4] 0.124 | [5] -0.135 | [6] 0.163 | [7] -0.056 | [8] -0.067 | [9] 0.009 | [10] 0.037 | [11] -0.092 | [12] -0.024 | [13] -0.119 | [14] 0.077 | [15] -0.028 | [16] 0.081 | [17] 0.048 | [18] 0.138 | [19] 0.066 | [20] -0.165

LTA4H (UniProt P09960)
inactive: [1] 0.03 | [2] -0.124 | [3] 0.033 | [4] -0.084 | [5] -0.029 | [6] 0.019 | [7] 0 | [8] 0.012 | [9] 0.012 | [10] 0.083 | [11] 0.014 | [12] 0.027 | [13] 0.093 | [14] -0.126 | [15] 0.012 | [16] -0.026 | [17] 0.017 | [18] 0.013 | [19] -0.017 | [20] 0.035

LSM1 (UniProt O15116)
inactive: [1] -0.144 | [2] 0.133 | [3] 0.036 | [4] 0.015 | [5] -0.014 | [6] 0.03 | [7] 0.02 | [8] 0.067 | [9] -0.035 | [10] 0.1 | [11] 0.018 | [12] 0.139 | [13] 0.083 | [14] -0.06 | [15] 0.07 | [16] 0.077 | [17] 0.033 | [18] -0.02 | [19] 0.037 | [20] 0.098

MACC1 (UniProt Q6ZN28)
inactive: [1] 0.04 | [2] -0.061 | [3] 0 | [4] 0.025 | [5] -0.273 | [6] -0.378 | [7] 0.229 | [8] -0.014 | [9] 0.064 | [10] 0.072 | [11] 0.054 | [12] -0.145 | [13] 0.085 | [14] -0.083 | [15] 0.049 | [16] -0.15 | [17] -0.017 | [18] -0.005 | [19] 0.076 | [20] 0.024

MAN1B1 (UniProt Q9UKM7)
inactive: [1] -0.06 | [2] -0.032 | [3] 0.046 | [4] -0.042 | [5] 0.002 | [6] 0.056 | [7] -0.003 | [8] -0.021 | [9] 0.026 | [10] -0.017 | [11] 0.057 | [12] -0.131 | [13] 0.09 | [14] 0.086 | [15] 0.047 | [16] -0.01 | [17] -0.064 | [18] -0.019 | [19] -0.012 | [20] -0.079
